Measured values reported in patent US20060258607.

The chains behind the UniProt entries cited, without tags or fusion partners. Where a name states a change or a piece, a line headed by the entry shows the natural chain unless it says otherwise.
UniProt Q9UBU3: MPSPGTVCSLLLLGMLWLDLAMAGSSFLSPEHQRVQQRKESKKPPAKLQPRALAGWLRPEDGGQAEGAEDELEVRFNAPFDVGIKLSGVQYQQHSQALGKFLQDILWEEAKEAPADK
UniProt Q9QYH7: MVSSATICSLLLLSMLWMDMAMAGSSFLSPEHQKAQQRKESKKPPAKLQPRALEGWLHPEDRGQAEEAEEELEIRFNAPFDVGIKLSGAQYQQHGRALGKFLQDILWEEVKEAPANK

How the values were obtained:
[1] = molecular target: human ghrelin (L-peptide, octanoylated) (Homo sapiens) (UniProt Q9UBU3); assay: activity in cells; settings: L-RNA, synthetic protein, protein details: synthetic peptide, octanoyl-modified, Bachem, synthetic backbone, mirror-image nucleic acid; for functional effect of the aptamer: dose not given here; for pIC50: 37 C
[2] = molecular target: human ghrelin (L-peptide, octanoylated) (Homo sapiens) (UniProt Q9UBU3); assay: ELONA; settings: L-RNA; 5'-biotin; immobilised Spiegelmer captures octanoyl-ghrelin concentration-dependently, room temperature; synthetic protein; protein details: synthetic peptide, octanoyl-modified, Bachem; label: 5'-biotin; synthetic backbone; mirror-image nucleic acid; variant of SOT-C (NOX-B11) Spiegelmer
[3] = molecular target: T1, rat ghrelin (Rattus norvegicus) (UniProt Q9QYH7); assay: activity in cells; settings: L-RNA; 5'-40 kDa PEG; internal hexaethylene glycol spacer [all L-RNA (1-44); 5'-40 kDa PEG at 1; hexaethylene glycol spacer left out between 30 and 31]; in vivo suppression of rat ghrelin-induced GH release in rats; maximal at 75 nmol/kg; synthetic protein; synthetic backbone; mirror-image nucleic acid; letters built from the parent sequence and the stated change; variant of SOT-E-19
T1 sequence: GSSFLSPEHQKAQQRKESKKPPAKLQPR

[4] = molecular target: human des-octanoyl ghrelin (Homo sapiens) (UniProt Q9UBU3); assay: competition with a labelled probe; settings: L-RNA; internal hexaethylene glycol spacer [all L-RNA (1-44); hexaethylene glycol spacer left out between 30 and 31]; 100-fold excess des-octanoyl ghrelin does not compete; synthetic protein; protein details: synthetic peptide, not octanoylated; synthetic backbone; mirror-image nucleic acid; letters built from the parent sequence and the stated change; variant of MS-P2-F1 / SOT-E Spiegelmer
[5] = full activity retained, variant of SOT-D-000
[6] = three internal nucleotides replaced by hydrophilic spacer, spacer for three nucleotides, D-109 optimal position, variant of SOT-D-108
[7] = no loss of binding or inhibition, IC50 in figure, variant of SOT-E-19

CCGGUGAGGCAGACGUAAGACCGAAGGUAACCAUUCCUACCGG [SOT-D-108]
functional effect of the aptamer [1, 5]: active

CCGGUGAGGCAGUAAGACCGAAGGUAACCAUUCCUACCGG [5'-PEG-SOT-D-109]
functional effect of the aptamer ([1]; 5'-40 kDa PEG, internal hydrophilic spacer, same IC50 as unPEGylated D-109, room temperature, variant of SOT-D-109): active

CCGGUGAGGCAGUAAGACCGAAGGUAACCAUUCCUACCGG [SOT-D-110]
functional effect of the aptamer [1, 6]: active

CCGGUGAGGCCGUAAGACCGAAGGUAACCAUUCCUACCGG [SOT-D-111]
functional effect of the aptamer [1, 6]: active

CGGUGAGGCAAUAAGACCGAAGGUAACCAUUCCUACCG [SOT-D-102]
functional effect of the aptamer ([1]; deletion of three nucleotides loses activity, variant of SOT-D-100): less active

CGGUGAGGCAGACGUAAGACCGAAGGUAACCAUUCCUACCG [SOT-D-100]
functional effect of the aptamer [1, 5]: active

CGGUGAGGCAGAUAAGACCGAAGGUAACCAUUCCUACCG [SOT-D-101]
functional effect of the aptamer ([1]; deletion of two nucleotides tolerated, variant of SOT-D-100): active

CGGUGAGGCAGCACGCGUAAGACCGAAGGUAACCAAUCCUACCG [SOT-E-21]
functional effect of the aptamer ([1]; internal hydrophilic spacer [all L-RNA, internal hydrophilic spacer (N, left out) between 14 and 15], no loss of activity, letters built from the parent sequence and the stated change, variant of SOT-E-19): active

CGGUGAGGCAGCGCGUAAGACCGAAGGUAACCAAUCCUACCG [SOT-E-25]
functional effect of the aptamer ([1]; internal hydrophilic spacer [all L-RNA, internal hydrophilic spacer (N, left out) between 12 and 13], reduced antagonism, letters built from the parent sequence and the stated change, variant of SOT-E-21): less active

CGUGCGGUGAGGCAGACGUAAGACCGAAGGUAACCAUUCCUACCCACG [SOT-D-000]
functional effect of the aptamer ([1]; parent of truncations, room temperature): active

CGUGUGAGGCAAUAAAACUUAAGUCCGAAGGUAACCAAUCCUACACG [SOT-C (NOX-B11) Spiegelmer]
pIC50 ([1]; calcium release): 7.70

CGUGUGAGGCAAUAAAACUUAAGUCCGAAGGUAACCAAUCCUACACG [biotinylated NOX-B11]
binding result [2]: binds

GCGUAAGACCGAAGGUAACCAAUCCUACCGACACGGUGAGGCAGCAC [SOT-E-19-L3]
functional effect of the aptamer [1, 7]: active

GCGUAAGACCGAAGGUAACCAAUCCUACCGCAACGGUGAGGCAGCAC [SOT-E-19-L4]
functional effect of the aptamer [1, 7]: active

GCGUAAGACCGAAGGUAACCAAUCCUACCGCGGUGAGGCAGC [SOT-E-33]
functional effect of the aptamer ([1]; internal hydrophilic spacer [all L-RNA, internal hydrophilic spacer (N, left out) between 30 and 31], reduced antagonism, letters built from the parent sequence and the stated change, variant of SOT-E-19): less active

GCGUAAGACCGAAGGUAACCAAUCCUACCGCGGUGAGGCAGCAC [SOT-E-19-5'-Amino]
pIC50 ([1]; 5'-aminohexyl, internal hexaethylene glycol spacer [all L-RNA (1-44), 5'-aminohexyl at 1, hexaethylene glycol spacer left out between 30 and 31], calcium release, 2 nM ghrelin, letters built from the parent sequence and the stated change, variant of SOT-E-19): 8.40

GCGUAAGACCGAAGGUAACCAAUCCUACCGCGGUGAGGCAGCAC [SOT-E-19-5'-PEG]
functional effect of the aptamer [3]: active
pIC50 ([1]; 5'-40 kDa PEG, internal hexaethylene glycol spacer [all L-RNA (1-44), 5'-40 kDa PEG at 1, hexaethylene glycol spacer left out between 30 and 31], calcium release, 2 nM ghrelin, letters built from the parent sequence and the stated change, variant of SOT-E-19): 8.40

GCGUAAGACCGAAGGUAACCAAUCCUACCGCGGUGAGGCAGCAC [SOT-E-19]
binding result [4]: no binding
pIC50 ([1]; internal hexaethylene glycol spacer [all L-RNA (1-44), hexaethylene glycol spacer left out between 30 and 31], calcium release, 2 nM ghrelin, letters built from the parent sequence and the stated change, variant of MS-P2-F1 / SOT-E Spiegelmer): 8.40

GCGUAAGACCGAAGGUAACCAAUCCUACCGUAUCUACGGUGAGGCAGCAC [SOT-E-14]
functional effect of the aptamer ([1]; full activity, variant of MS-P2-F1 / SOT-E Spiegelmer): active

GGGUGAGCGUAAGACCGAAGGUAACCAAUCCUACCGCGGUGAGGCAGCAC [SOT-E-11]
functional effect of the aptamer ([1]; hydrophilic (hexaethylene glycol) spacer replaces U37-A42 [all L-RNA (1-50), hexaethylene glycol spacer left out between 36 and 37 (replaces parent U37-A42)], no loss of activity, letters built from the parent sequence and the stated change, variant of MS-P2-F1 / SOT-E Spiegelmer): active

GGGUGAGCGUAAGACCGAAGGUAACCAAUCCUACCGUAUCUACGGUGAGGCAGC [SOT-E-12]
functional effect of the aptamer ([1]; 3' truncation reduces binding, variant of MS-P2-F1 / SOT-E Spiegelmer): less active

GGGUGAGCGUAAGACCGAAGGUAACCAAUCCUACCGUAUCUACGGUGAGGCAGCAC [MS-P2-F1 / SOT-E Spiegelmer]
pIC50 ([1]; GHS-R1a CHO calcium release): 8.40

GGUAGGCAGACGUAAGACCGAAGGUAACCAUUCCUACC [SOT-D-106]
functional effect of the aptamer ([1]; virtually inactive, variant of SOT-D-104): not active

GGUGAGGCAGACGUAAGACCGAAGGUAACCAUUCCUACC [SOT-D-104]
functional effect of the aptamer ([1]; significant loss of binding activity, variant of SOT-D-000): less active

pIC50: −log10 of the molar value. For some assays here: Negatives hold for the conditions tested. For some assays here: Construct, isoform or probe ends are uncertain for at least one entry. For some assays here: A weaker result is weaker than the reference pair of the same experiment. For some assays here: Tags and fusion partners may be left off the protein sequences shown.
